According to PubChem BioAssay AID1347075 (National Center for Advancing Translational Sciences (NCATS), 2019):
Values joined by “and” are separate entries in the source; they are usually repeats but may differ in a detail not shown here. Identical values can stand only once. Out of some 400,000 compounds screened, about 5,500 (1.4%) were called active. Inconclusive means that the source gave no clear call. Such entries were picked first, then a sample of the others. Calls follow the shape of the dose curve; as a rule, active = well fitted cell-killing curve with a large enough effect; inconclusive = small, poorly fitted or top-dose-only effect, or effect the other way; inactive = flat fitted curve, though single readings scatter. Where the call is inconclusive, the potency comes from a doubtful curve fit.

Assay: qHTS assay for MDR1-selective chemotherapeutics: Primary screen using the parental adenocarcinoma cell KB-3-1; also: nearly all actives have a fitted effect of over 60% in size
Settings: KB-3-1 viability, CellTiter-Glo ATP luminescence, 72 h; activity change, negative = cytotoxic: at 46.1 µM (top of the series)
In short: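 KB-3-1 parental drug-naive adenocarcinoma cells in DMEM/10% FBS, incubated 72 h at 37 C with pin-transferred compounds across a concentration series. Viability by CellTiter-Glo luminescence; concentration-response curves fitted after normalization.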
% is scaled to controls: 0 for no effect and ±100 for the full control effect; potency is read from the fitted curve at half-maximal effect.

Structure (SMILES)	activity change, negative = cytotoxic	Potency
O=C(Nc1ccn(CCCNCc2ccccc2)c(=O)n1)OCc1ccccc1	inactive: 0%	
CCOC(=O)N1CCN(C(=O)C(CC(C)C)NS(=O)(=O)c2ccc(C)cc2)CC1 (stereo not drawn)	inactive: -18.6%	
CCOCc1c(C(=O)Nc2ccccc2N2CCN(C)CC2)oc2ccccc12		inconclusive: 29.1 µM [cytotoxic, single point]
CN(Cc1ccccc1)C(=O)[C@@H]1CCCN1C(=O)[C@@H]1CCCN1C(=O)c1cccc(Cl)c1	inconclusive: 11.5%	
Cc1cccc(-n2cc(-c3ccccc3)c3c(=O)[nH]cnc32)c1	inconclusive: -83.2%	
Cc1ccc(-c2nnc(Nc3ccc4c(c3)OCO4)c3ccccc23)cc1S(N)(=O)=O	inactive: -28.7%	
COc1ccc(Nc2c(-c3ccc(C)o3)nc3cc(C)ccn23)cc1		active: 23.1 µM
CC(NCc1ccc(F)cc1)C(=O)Nc1cc(S(=O)(=O)N2CCCCC2)ccc1Cl (stereo not drawn)		inconclusive: 18.4 µM [cytotoxic, single point]
Cc1ccccc1-c1cc2nc(NCc3ccc4occc4c3)n(C)c(=O)c2s1		inconclusive: 29.1 µM [cytotoxic, single point]
Cc1ccc2nc(-c3cccc(NS(C)(=O)=O)c3)cc(-c3ccccc3)c2c1		inconclusive: 32.6 µM [cytotoxic, single point]
O=C(/C=C/c1ccc2c(c1)OCO2)Nc1nncs1		active: 5.8 µM
Cc1ccc2oc(C(=O)NCc3ccc4c(c3)OCO4)c(C)c2c1		inconclusive: 23.1 µM [cytotoxic, single point]
O=C(Nc1ccc(-c2csc(Nc3ccc(Cl)cc3)n2)cc1)c1cc([N+](=O)[O-])cc(C(F)(F)F)c1		inconclusive: 23.1 µM [cytotoxic, single point]
Cc1ccc(NC(=O)COc2ccc(-c3nnco3)cc2)cc1S(=O)(=O)N1CCOCC1		inconclusive: 2.59 µM [cytotoxic, partial curve]
Cc1cccc(NC(=S)NC(NC(=O)c2ccco2)C(Cl)(Cl)Cl)c1 (stereo not drawn)		inconclusive: 20.6 µM [cytotoxic, single point]
O=C(CN1C(=O)CCSc2ccccc21)Nc1ccc(C(F)(F)F)cc1		inconclusive: 20.6 µM [cytotoxic, single point]
CCC1CN2CCc3cc(OC)c(OC)cc3C2CC1CC1c2cc(OC)c(OC)cc2CCN1C(=O)C(Cc1c[nH]c2ccccc12)NC(=O)OC(C)(C)C (stereo not drawn)		inconclusive: 23.1 µM [cytotoxic, single point]
Cc1ccc(Nc2cc(C)nn2-c2nc(C)cc(=O)[nH]2)cc1		active: 1.41 µM
O=Cc1cc2ccccc2nc1SCc1ccc(Cl)c(Cl)c1		active: 4.61 µM
O=C(Nc1ccc2c(c1)OCO2)N1CCN(Cc2ccco2)CC1	inactive: 1.9%	
O=C(CCc1nnc(CCCCc2ccccc2)o1)N1CCCC(O)C1 (stereo not drawn)	inactive: 3.55%	
CCN(CC)C(=O)[C@H]1C[C@H](CC(=O)NC/C=C(\C)CCC=C(C)C)C(=O)N2CCc3c([nH]c4cc(-c5ccco5)ccc34)[C@]12C		inconclusive: 25.9 µM [cytotoxic, single point]
CCOC(=O)N1CCN(S(=O)(=O)c2ccc(C(=O)N(CCCN(C)C)c3nc4ccc(Cl)cc4s3)cc2)CC1	inactive: -4.85%	

Structure (SMILES)	activity change, negative = cytotoxic	Potency
Cc1cccc(C(=O)N(Cc2ccccc2F)C2CCS(=O)(=O)C2)c1 (stereo not drawn)		inconclusive: 0.58 µM [rising, full curve]
Cc1ccc(/C=N/Nc2ccnc3cc(Cl)ccc23)c(C)c1		inconclusive: 29.1 µM [cytotoxic, single point]
c1ccc2cnccc2c1	inactive: 8.06%	
COc1ccc(C)cc1NC(=O)Nn1cnnc1	inconclusive: -0.662%	
COc1ccc(S(=O)(=O)N2c3ccccc3OCC2c2ccccc2)cc1 (stereo not drawn)		active: 8.2 µM
Oc1ccc(CCNc2c3ccccc3nc3ccccc23)cc1O		active: 18.4 µM
COc1ccccc1N1CCN(c2nc(C)nc3c2oc2ccccc23)CC1		active: 1.41 µM
O=C(CCN1CCc2ccccc2C1)c1ccc2c(c1)OCCO2		inconclusive: 23.1 µM [cytotoxic, single point]
CCNc1nc2c(c(=O)[nH]c(=O)n2C)n1CC(C)C	inconclusive: 4.8%	
CCOC(=O)N1CCC(NC(=O)CSCc2nc(-c3cccc(OC)c3)oc2C)CC1		inconclusive: 11.6 µM [cytotoxic, partial curve, poor fit]
O=c1cc(-c2ccc(F)cc2)oc2ccccc12		inconclusive: 23.1 µM [cytotoxic, single point]
CC(/C=C/c1ccccc1)=N\NC(N)=S		inconclusive: 20.6 µM [cytotoxic, partial curve]
COc1ccc(-c2cc3nc4c(c(N5CCC6(CC5)OCCO6)n3n2)CCC4)cc1		inconclusive: 7.31 µM [rising, partial curve]
Cc1cc(=O)oc2cc(OCC(=O)N3CCN(C(=O)C4COc5ccccc5O4)CC3)ccc12 (stereo not drawn)	inactive: 22.4%	
CN(C)CCNC(=O)c1csc(Nc2cccc3ccccc23)n1		inconclusive: 16.4 µM [cytotoxic, single point]
CCc1nc2c(OCc3cc(Cl)cc(Cl)c3)cccn2c1N(C)C(=O)Nc1ccccc1OC		inconclusive: 20.6 µM [cytotoxic, single point]
COc1ccccc1NC(=O)N(Cc1cccs1)Cc1cc2cc3c(cc2[nH]c1=O)OCO3		inconclusive: 29.1 µM [cytotoxic, single point]
COc1ccc(-c2csc(Nc3ccccc3)[n+]2Cc2ccccc2)cc1		inconclusive: 23.1 µM [cytotoxic, single point]
O=C(O)CSc1ncnc2sc3c(c12)CCCC3	inactive: -1.95%	
O=C(CCn1cnnn1)Nc1ccc(Cl)c(Cl)c1		inconclusive: 16.4 µM [cytotoxic, single point]
CCc1ccc(C(=O)c2cn(CC(=O)Nc3ccc4c(c3)OCO4)c3ccc(F)cc3c2=O)cc1		inconclusive: 16.4 µM [cytotoxic, single point]
COC(=O)c1ccc(/C=C2/SC(=S)N(CCCC(=O)Nc3ccc(O)cc3)C2=O)cc1		inconclusive: 4.61 µM [cytotoxic, full curve, poor fit]
CCOC(=O)C1=CN(Cc2cccc(-c3ccc(F)cc3)c2)S(=O)(=O)N(C)C1C (stereo not drawn)		inconclusive: 29.1 µM [cytotoxic, single point]

Structure (SMILES)	activity change, negative = cytotoxic	Potency
O=C(Nc1cccc(Cl)c1)c1cc(N=Nc2ccc([N+](=O)[O-])cc2Cl)ccc1O		active: 20.6 µM
Cc1c(C(=O)Oc2cccc3cccnc23)oc2ccccc12	inactive: -5.4%	
CC[n+]1cccc(Br)c1	inactive: 2.23%	
C=CC[C@@H](Cc1ccc(F)cc1)C(=O)OC[C@@H]1CCCN1C(=O)[C@H](CC=C)CC(=O)N(CCO)Cc1ccccc1		inconclusive: 23.1 µM [cytotoxic, single point]
COc1ccccc1-c1nc(-c2cccc(C)c2)no1		inconclusive: 25.9 µM [cytotoxic, partial curve, poor fit]
Nc1[nH]c(C(=O)c2ccccc2)c(-c2ccc(Cl)c(F)c2)c1C(=O)NCCc1c[nH]c2ccccc12		inconclusive: 29.1 µM [cytotoxic, single point]
CCCCN(C)C(=O)c1ccc(Nc2nc(C(N)Cc3ccc(C(F)(F)F)cc3)cs2)nc1 (stereo not drawn)		inconclusive: 29.1 µM [cytotoxic, single point]
Cc1cnc(C(=O)NNC(=O)c2ccc(Br)cc2)cn1		inconclusive: 20.6 µM [cytotoxic, single point]
CC(=O)[C@@]1(O)Cc2c(O)c3c(c(O)c2[C@H](O[C@H]2C[C@H](N)[C@H](O)[C@H](C)O2)C1)C(=O)c1ccccc1C3=O		active: 0.184 µM
O=C(/C=C/c1ccc([N+](=O)[O-])o1)NNC(=O)c1ccc(F)cc1		inconclusive: 29.1 µM [cytotoxic, single point]
COc1ccc([C@H]2CC(=O)C=C(c3ccc(NC(C)=O)cc3)C2)cc1OC	inactive: 0.567%	
COC(=O)c1ccccc1NC(=O)c1ccnn1C		inconclusive: 29.1 µM [rising, single point]
Nc1nc2n[nH]nc2c(=O)[nH]1		active: 1.46 µM and inconclusive: 1.84 µM [cytotoxic, full curve]
CCc1ccc(C(=O)COC(=O)C(CCSC)NC(=O)C23CC4CC(CC(C4)C2)C3)cc1 (stereo not drawn)		inconclusive: 13 µM [rising, partial curve, poor fit]
CCn1c(C)nc2cc(-c3nnc(-c4c(-c5ccccc5)noc4C)o3)ccc21		inconclusive: 29.1 µM [rising, single point]
CN1C2CCC1/C(=C/c1cccn1C)C(=O)/C2=C\c1cccn1C	inactive: -1.68%	
CC12CN(Cc3ccccc3)CC(C)(CN(Cc3ccccc3)C1)C2=O		inconclusive: 18.4 µM [cytotoxic, partial curve, poor fit]
CCNC(=O)C1(C)CCN(C(=O)c2c(-c3ccccc3)noc2C)C1 (stereo not drawn)	inactive: 0%	
COc1ccc(N(CC(=O)NCCSc2ccccc2)S(=O)(=O)c2ccccc2)cc1		inconclusive: 18.4 µM [cytotoxic, partial curve, poor fit]
C[C@@H]1C(c2ccc(F)cc2)=NN(c2ccccc2)[C@H]1C(=O)N1CCOC1=O		inconclusive: 16.4 µM [cytotoxic, single point]
CC(=O)Oc1ccc(N(C(C)=O)S(=O)(=O)c2ccccc2)c2ccccc12	inactive: -0.838%	
Cc1cc(C)cc(C(=O)NC(=S)Nc2ccc(Cc3ccncc3)cc2)c1		inconclusive: 23.1 µM [cytotoxic, single point]
